Among the data in publication PMC6161326 are binding values, retold here.

Chains of the proteins cited; added tags and fusions are not shown. Lines headed by an entry give the natural chain unless they say otherwise; changes in a name come on top.
UniProt Q9MAI5: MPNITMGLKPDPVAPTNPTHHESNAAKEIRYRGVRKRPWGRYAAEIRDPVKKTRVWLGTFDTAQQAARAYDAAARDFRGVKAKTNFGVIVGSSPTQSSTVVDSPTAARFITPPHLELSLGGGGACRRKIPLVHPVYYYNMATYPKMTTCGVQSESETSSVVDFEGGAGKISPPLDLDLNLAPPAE

The target of test [1] is ETHYLENE RESPONSE FACTOR 8 (ERF8), yeast two-hybrid fusion (Arabidopsis thaliana) (UniProt Q9MAI5). Kind of test: two-hybrid; yeast two-hybrid (Y2H); bait, prey and reporters not given.
The target in test [2] is ETHYLENE RESPONSE FACTOR 8 (ERF8), BiFC fusion (Arabidopsis thaliana) (UniProt Q9MAI5). Kind of test: split reporter; BiFC with split YFP (pBWGYn2 / pBWGYc2), Agrobacterium-mediated transient co-expression in N. benthamiana leaves, confocal microscopy; signal in the nucleus.
For test [3], the target named is ERF8^L176A/L178A, BiFC fusion (Arabidopsis thaliana) (UniProt Q9MAI5). The description is as above.

These are yes or no findings as the source states them, for the method shown. For part of these data: In cells and extracts the contact can be indirect. Some entries that bind do so weakly or less than the wild type. Where a sequence is shown, tags or fusion partners need not be part of it.

B1: MITOGEN-… PROTEIN KINASE 11 (MPK11), yeast two-hybrid fusion (enzyme, UniProt Q9LMM5 1-369)
chain: MSIEKPFFGDDSNRGVSINGGRYVQYNVYGNLFEVSKKYVPPLRPIGRGASGIVCAAWNSETGEEVAIKKIGNAFGNIIDAKRTLREIKLLKHMDHDNVIAIIDIIRPPQPDNFNDVHIVYELMDTDLHHIIRSNQPLTDDHSRFFLYQLLRGLKYVHSANVLHRDLKPSNLLLNANCDLKIGDFGLARTKSETDFMTEYVVTRWYRAPELLLNCSEYTAAIDIWSVGCILGEIMTREPLFPGRDYVQQLRLITELIGSPDDSSLGFLRSDNARRYVRQLPQYPRQNFAARFPNMSVNAVDLLQKMLVFDPNRRITVDEALCHPYLAPLHEYNEEPVCVRPFHFDFEQPSLTEENIKELIYRESVKFNP
On to B1, for which, in test [1], the binding result is given as “binds”.

B2: MITOGEN-… PROTEIN KINASE 11 (MPK11), BiFC fusion (enzyme, UniProt Q9LMM5 1-369)
chain: MSIEKPFFGDDSNRGVSINGGRYVQYNVYGNLFEVSKKYVPPLRPIGRGASGIVCAAWNSETGEEVAIKKIGNAFGNIIDAKRTLREIKLLKHMDHDNVIAIIDIIRPPQPDNFNDVHIVYELMDTDLHHIIRSNQPLTDDHSRFFLYQLLRGLKYVHSANVLHRDLKPSNLLLNANCDLKIGDFGLARTKSETDFMTEYVVTRWYRAPELLLNCSEYTAAIDIWSVGCILGEIMTREPLFPGRDYVQQLRLITELIGSPDDSSLGFLRSDNARRYVRQLPQYPRQNFAARFPNMSVNAVDLLQKMLVFDPNRRITVDEALCHPYLAPLHEYNEEPVCVRPFHFDFEQPSLTEENIKELIYRESVKFNP
B2: the binding result in test [2] and in test [3] was “binds” in each case.
